PubChem BioAssay AID743121 – NCATS | 2013
Shown is a random part of about 26,000 reagents tested. Over the whole deposit, 167 (0.63%) got an active call. 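Calls are per gene from RSA p-values that are not deposited; an individual active-marked siRNA can sensitise only weakly.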 Further read-outs or replicates are left out here.

Test: 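Knock-downs that sensitise breast cancer cells to camptothecin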 (primary screen)
Cells: MDA-MB-231 cells, a human breast cancer line
Reagent: single siRNA against human genes, 20 nM siRNA (0.8 pmol per well)
Timing: 120 h (drug added 48 h after transfection, read 72 h later)
Conditions: camptothecin 20 nM (about EC30) for 72 h; vehicle 0.1% DMSO in parallel plates
Read-out: 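CellTiter-Glo ATP signal, scaled to control siRNA as percent viability; sensitisation given as log2 of untreated divided by camptothecin-treated viability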
Direction: log2 vehicle/camptothecin viability: higher = stronger sensitisation to camptothecin
Active means: 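Each gene scored by redundant siRNA activity (RSA) over its individual siRNA ratios; a gene is called active at p < 0.001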

HSD17B1 [SID164370093] gave log2 vehicle/camptothecin viability 0.00951; inactive. Against HSD17B1 [SID164370096] the deposit lists log2 vehicle/camptothecin viability 0.176; inactive. After knock-down of HSD17B1 [SID164370097], the record shows log2 vehicle/camptothecin viability -0.1; inactive. Silencing of HSD17B1 [SID164370098] came out at: log2 vehicle/camptothecin viability -0.367; inactive. With knock-down of GNE [SID164408132], the screen gave log2 vehicle/camptothecin viability -0.479; inactive. For GNE [SID164408134], the values are log2 vehicle/camptothecin viability 0.0283; inactive.

Silencing of GNE [SID164408135] resulted in: log2 vehicle/camptothecin viability -0.613; inactive. Against GNE [SID164408137] the deposit lists log2 vehicle/camptothecin viability -0.115; inactive. For BLMH [SID164355341] the deposit lists log2 vehicle/camptothecin viability -0.331; inactive. Against BLMH [SID164355342] the deposit lists log2 vehicle/camptothecin viability -0.0777; inactive. With knock-down of BLMH [SID164355345] the results were log2 vehicle/camptothecin viability -0.301; inactive. Against BLMH [SID164355347] the deposit lists log2 vehicle/camptothecin viability -0.131; inactive.

Depletion of SLC25A43 [SID164586451] gave: log2 vehicle/camptothecin viability 0.609; inactive. Against SLC25A43 [SID164586453], the entry reads log2 vehicle/camptothecin viability -0.47; inactive. SLC25A43 [SID164586455] gave log2 vehicle/camptothecin viability -0.241; inactive. TUBB3 [SID164410592] gave log2 vehicle/camptothecin viability 0.0681; inactive. Against TUBB3 [SID164410593] the deposit lists log2 vehicle/camptothecin viability -0.443; inactive. Depletion of TUBB3 [SID164410597] came out at: log2 vehicle/camptothecin viability 0.0944; inactive.

With knock-down of SDHC [SID164387494] the results were log2 vehicle/camptothecin viability 0.0672; inactive. Depletion of SDHC [SID164387495] resulted in: log2 vehicle/camptothecin viability -0.389; inactive. SDHC [SID164387496] scored log2 vehicle/camptothecin viability 0.157; inactive. After knock-down of SDHC [SID164387498], the screen gave log2 vehicle/camptothecin viability -0.185; inactive. After knock-down of CA7 [SID164356136], the screen gave log2 vehicle/camptothecin viability 0.0163; inactive. Against CA7 [SID164356138] the deposit lists log2 vehicle/camptothecin viability 0.483; inactive.

Depletion of CA7 [SID164356139] resulted in: log2 vehicle/camptothecin viability 0.14; inactive. Against CA7 [SID164356140] the deposit lists log2 vehicle/camptothecin viability -0.274; inactive. Depletion of BCR [SID164355195] resulted in: log2 vehicle/camptothecin viability -0.183; inactive. For BCR [SID164355196] the deposit lists log2 vehicle/camptothecin viability 0.156; inactive. BCR [SID164355198] gave log2 vehicle/camptothecin viability 0.145; inactive. Silencing of BCR [SID164355200] came out at: log2 vehicle/camptothecin viability -0.14; inactive.

Silencing of DERL1 [SID164530804] gave: log2 vehicle/camptothecin viability -0.26; inactive. CPD [SID164359529] gave log2 vehicle/camptothecin viability -0.259; inactive. After knock-down of CPD [SID164359532] the results were log2 vehicle/camptothecin viability -0.0398; inactive. Knock-down of CPD [SID164359533] came out at: log2 vehicle/camptothecin viability -0.241; inactive. For CPD [SID164359534] the deposit lists log2 vehicle/camptothecin viability -0.0969; inactive.

2 entries from above, sorted by “log2 vehicle/camptothecin viability”, descending:
SLC25A43 [SID164586451]: log2 vehicle/camptothecin viability = 0.609; activity call = inactive
SLC25A43 [SID164586453]: log2 vehicle/camptothecin viability = -0.47; activity call = inactive
